We go through 3 molecules from paper doi:10.1101/2023.08.23.554416.

Holding throughout (test): SEC
For orientation: In gel filtration, larger molecules generally elute earlier.

Assay [1] deals with T1, LEUCINE-RICH REPEAT EXTENSIN 1 LRR domain (LRX1LRR), residues 28-404 (Arabidopsis thaliana) (UniProt O65375).
T1 sequence: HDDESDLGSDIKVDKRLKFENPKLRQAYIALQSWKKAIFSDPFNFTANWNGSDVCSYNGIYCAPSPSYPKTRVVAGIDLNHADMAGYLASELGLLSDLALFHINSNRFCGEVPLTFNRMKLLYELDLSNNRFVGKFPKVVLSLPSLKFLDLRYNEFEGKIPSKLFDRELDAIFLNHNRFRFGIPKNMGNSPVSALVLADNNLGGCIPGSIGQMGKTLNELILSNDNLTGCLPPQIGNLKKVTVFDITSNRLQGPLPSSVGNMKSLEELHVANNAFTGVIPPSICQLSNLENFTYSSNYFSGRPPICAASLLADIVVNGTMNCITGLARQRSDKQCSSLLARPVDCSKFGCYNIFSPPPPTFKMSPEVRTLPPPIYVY

Assay [2] addresses T1, LEUCINE-RICH REPEAT EXTENSIN 1 LRR domain (LRX1LRR), residues 28-404 (Arabidopsis thaliana). This is another data set of the same source.
Assay [3] deals with T2, LEUCINE-RICH REPEAT EXTENSIN 2 LRR domain (LRX2LRR), residues 1-385 (Arabidopsis thaliana) (UniProt O48809).
T2 sequence: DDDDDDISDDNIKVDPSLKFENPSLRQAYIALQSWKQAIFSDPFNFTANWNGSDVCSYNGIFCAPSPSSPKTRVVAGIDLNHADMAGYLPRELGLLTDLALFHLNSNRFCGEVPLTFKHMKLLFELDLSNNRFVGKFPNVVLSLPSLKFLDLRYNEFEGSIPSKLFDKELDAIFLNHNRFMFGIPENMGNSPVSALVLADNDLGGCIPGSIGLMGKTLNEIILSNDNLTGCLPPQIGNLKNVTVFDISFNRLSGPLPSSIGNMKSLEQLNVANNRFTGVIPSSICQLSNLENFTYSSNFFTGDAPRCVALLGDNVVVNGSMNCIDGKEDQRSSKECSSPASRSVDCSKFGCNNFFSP

Read-outs that look alike come from different tables or passages of the source. These are yes or no findings as the source states them, for the method shown. Some entries that bind do so weakly or less than the wild type.

For AQKKYISYGAMRRNSVPCSRRGASYYNCQRGAQANPYSRGCSTITRCRR [RALF22 mature peptide, recombinant, co-expressed with LRX1LRR or LRX2LRR], the binding entry in assay [1], in assay [2] and in assay [3] was “binds” throughout.

B1: LEUCINE-RICH REPEAT EXTENSIN 2 LRR domain (LRX2LRR), residues 1-385 (domain or fragment, UniProt O48809 29-385)
chain: DDDDDDISDDNIKVDPSLKFENPSLRQAYIALQSWKQAIFSDPFNFTANWNGSDVCSYNGIFCAPSPSSPKTRVVAGIDLNHADMAGYLPRELGLLTDLALFHLNSNRFCGEVPLTFKHMKLLFELDLSNNRFVGKFPNVVLSLPSLKFLDLRYNEFEGSIPSKLFDKELDAIFLNHNRFMFGIPENMGNSPVSALVLADNDLGGCIPGSIGLMGKTLNEIILSNDNLTGCLPPQIGNLKNVTVFDISFNRLSGPLPSSIGNMKSLEQLNVANNRFTGVIPSSICQLSNLENFTYSSNFFTGDAPRCVALLGDNVVVNGSMNCIDGKEDQRSSKECSSPASRSVDCSKFGCNNFFSP
For the molecule B1, in assay [3], the binding entry is given as “binds”.

B2: LEUCINE-RICH REPEAT EXTENSIN 1 LRR domain (LRX1LRR), residues 28-404 (domain or fragment, UniProt O65375 28-404)
chain: HDDESDLGSDIKVDKRLKFENPKLRQAYIALQSWKKAIFSDPFNFTANWNGSDVCSYNGIYCAPSPSYPKTRVVAGIDLNHADMAGYLASELGLLSDLALFHINSNRFCGEVPLTFNRMKLLYELDLSNNRFVGKFPKVVLSLPSLKFLDLRYNEFEGKIPSKLFDRELDAIFLNHNRFRFGIPKNMGNSPVSALVLADNNLGGCIPGSIGQMGKTLNELILSNDNLTGCLPPQIGNLKKVTVFDITSNRLQGPLPSSVGNMKSLEELHVANNAFTGVIPPSICQLSNLENFTYSSNYFSGRPPICAASLLADIVVNGTMNCITGLARQRSDKQCSSLLARPVDCSKFGCYNIFSPPPPTFKMSPEVRTLPPPIYVY
As for B2, the binding entry in assay [2] is “binds”.
